Drawing on publication PMC11574178, this text covers binding for four molecules.

Chains of the proteins cited; added tags and fusions are not shown.
UniProt Q9WTL8: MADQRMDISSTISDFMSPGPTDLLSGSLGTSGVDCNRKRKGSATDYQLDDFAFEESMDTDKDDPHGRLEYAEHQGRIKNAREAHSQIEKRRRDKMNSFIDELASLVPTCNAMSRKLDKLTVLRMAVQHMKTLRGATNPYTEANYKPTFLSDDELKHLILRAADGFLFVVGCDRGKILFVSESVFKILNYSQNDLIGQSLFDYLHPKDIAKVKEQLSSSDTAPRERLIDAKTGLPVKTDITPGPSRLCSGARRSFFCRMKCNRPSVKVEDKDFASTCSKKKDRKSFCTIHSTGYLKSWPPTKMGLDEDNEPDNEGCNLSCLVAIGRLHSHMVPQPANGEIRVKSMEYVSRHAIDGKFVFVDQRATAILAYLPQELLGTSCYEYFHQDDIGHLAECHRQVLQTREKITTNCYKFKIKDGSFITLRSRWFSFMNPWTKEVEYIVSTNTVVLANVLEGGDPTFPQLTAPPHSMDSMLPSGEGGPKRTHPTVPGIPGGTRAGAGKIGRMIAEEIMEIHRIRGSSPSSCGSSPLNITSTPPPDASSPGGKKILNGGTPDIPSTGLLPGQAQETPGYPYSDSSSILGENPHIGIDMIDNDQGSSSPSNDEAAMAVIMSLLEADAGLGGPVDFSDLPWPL
UniProt Q9D832: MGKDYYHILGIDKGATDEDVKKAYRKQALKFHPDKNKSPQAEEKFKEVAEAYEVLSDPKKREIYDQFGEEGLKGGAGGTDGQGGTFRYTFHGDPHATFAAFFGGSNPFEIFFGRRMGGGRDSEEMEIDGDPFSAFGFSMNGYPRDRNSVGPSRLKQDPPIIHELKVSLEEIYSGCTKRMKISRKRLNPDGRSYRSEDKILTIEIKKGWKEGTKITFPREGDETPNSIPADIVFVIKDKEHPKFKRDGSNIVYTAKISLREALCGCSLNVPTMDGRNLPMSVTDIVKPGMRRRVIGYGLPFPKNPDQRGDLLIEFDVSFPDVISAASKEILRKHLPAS

In assay [1] the target is T1, mitochondrial Na+/Ca2+/Li+ exchanger (NCLX), endogenous (mouse (endogenous in hippocampal neurons)) (UniProt Q925Q3).
T1 sequence: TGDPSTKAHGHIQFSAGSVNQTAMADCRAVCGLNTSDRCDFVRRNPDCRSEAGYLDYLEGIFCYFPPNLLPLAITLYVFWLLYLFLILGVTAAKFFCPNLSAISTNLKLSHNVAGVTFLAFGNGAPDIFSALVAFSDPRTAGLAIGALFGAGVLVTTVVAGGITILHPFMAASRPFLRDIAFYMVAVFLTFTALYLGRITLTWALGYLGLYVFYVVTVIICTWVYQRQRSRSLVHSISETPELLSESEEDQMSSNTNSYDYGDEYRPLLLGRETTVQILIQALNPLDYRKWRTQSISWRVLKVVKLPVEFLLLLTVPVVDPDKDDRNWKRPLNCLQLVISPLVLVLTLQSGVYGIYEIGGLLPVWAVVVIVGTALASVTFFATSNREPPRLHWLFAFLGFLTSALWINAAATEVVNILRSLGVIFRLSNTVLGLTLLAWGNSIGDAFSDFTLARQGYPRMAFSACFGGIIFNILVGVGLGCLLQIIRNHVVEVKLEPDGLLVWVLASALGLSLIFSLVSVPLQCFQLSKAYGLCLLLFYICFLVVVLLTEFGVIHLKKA
Briefly: co-IP; reciprocal immunoprecipitation of endogenous proteins from hippocampal neuron lysate; Pierce Magnetic IP/Co-IP kit, antibody overnight at 4 °C, protein A/G magnetic beads; normal IgG as control.

Assay [2] concerns the target FLAG-tagged wild-type Bmal1 expressed in HEK293T cells (UniProt Q9WTL8). Put plainly: co-IP; HEK293T cells transfected with Bmal1 (wild type or mutants) alone or with Clock, with or without high glucose and OGT inhibitors; immunoprecipitation with anti-FLAG antibody, blot for Clock.
Assay [3] addresses Brain and Muscle ARNT-Like 1 (Bmal1), endogenous (mouse (endogenous in primary hippocampal neurons and hippocampal CA1 neurons)) (UniProt Q9WTL8). Briefly: co-IP; endogenous Bmal1 precipitated from lysate of mouse primary hippocampal neurons, blot for Clock; cells in normal glucose (5.5 mmol/L) or high glucose (25 mmol/L) with vehicle or OSMI-1 (20 μM), or with the peptides S424-pe / S424A-pe.

The target in assay [4] is Wild-type Bmal1 re-expressed in primary hippocampal neurons with endogenous Bmal1 stably silenced (UniProt Q9WTL8). Put plainly: co-IP; primary hippocampal neurons with endogenous Bmal1 stably silenced and expressing WT or S424A Bmal1, normal or high glucose; lysates precipitated with Bmal1 antibodies, blot for Clock.
For assay [5], the target named is Brain and Muscle ARNT-Like 1 (Bmal1), endogenous (mouse (endogenous in primary hippocampal neurons and hippocampal CA1 neurons)) (UniProt Q9WTL8). Briefly: co-IP; hippocampal CA1 neurons isolated from db/m, db/db, control or STZ mice treated with vehicle, S424A-pe or S424-pe (5 mg/kg); lysates precipitated with Bmal1 antibodies, blot for Clock.
Assay [6] shares this target. Put plainly: co-IP; reciprocal immunoprecipitation of endogenous proteins from hippocampal neuron lysate; Pierce Magnetic IP/Co-IP kit, antibody overnight at 4 °C, protein A/G magnetic beads; normal IgG as control.

No constants are given. Whether binding was seen depends on the method and setting. Binding seen in cells or lysates may run through a third protein. Some results given as binding are weak or reduced against the parent protein; the word gives no strength.

For “DnaJ homolog subfamily B member 4 (Dnajb4), endogenous (from UniProt Q9D832 1-337)”, in assay [1], the binding entry is reported as “binds”.

B1: Clock expressed in HEK293T cells (protein, UniProt O08785 1-855)
chain: MVFTVSCSKMSSIVDRDDSSIFDGLVEEDDKDKAKRVSRNKSEKKRRDQFNVLIKELGSMLPGNARKMDKSTVLQKSIDFLRKHKETTAQSDASEIRQDWKPTFLSNEEFTQLMLEALDGFFLAIMTDGSIIYVSESVTSLLEHLPSDLVDQSIFNFIPEGEHSEVYKILSTHLLESDSLTPEYLKSKNQLEFCCHMLRGTIDPKEPSTYEYVRFIGNFKSLTSVSTSTHNGFEGTIQRTHRPSYEDRVCFVATVRLATPQFIKEMCTVEEPNEEFTSRHSLEWKFLFLDHRAPPIIGYLPFEVLGTSGYDYYHVDDLENLAKCHEHLMQYGKGKSCYYRFLTKGQQWIWLQTHYYITYHQWNSRPEFIVCTHTVVSYAEVRAERRRELGIEESLPETAADKSQDSGSDNRINTVSLKEALERFDHSPTPSASSRSSRKSSHTAVSDPSSTPTKIPTDTSTPPRQHLPAHEKMTQRRSSFSSQSINSQSVGPSLTQPAMSQAANLPIPQGMSQFQFSAQLGAMQHLKDQLEQRTRMIEANIHRQQEELRKIQEQLQMVHGQGLQMFLQQSNPGLNFGSVQLSSGNSNIQQLTPVNMQGQVVPANQVQSGHISTGQHMIQQQTLQSTSTQQSQQSVMSGHSQQTSLPSQTPSTLTAPLYNTMVISQPAAGSMVQIPSSMPQNSTQSATVTTFTQDRQIRFSQGQQLVTKLVTAPVACGAVMVPSTMLMGQVVTAYPTFATQQQQAQTLSVTQQQQQQQQQPPQQQQQQQQSSQEQQLPSVQQPAQAQLGQPPQQFLQTSRLLHGNPSTQLILSAAFPLQQSTFPPSHHQQHQPQQQQQLPRHRTDSLTDPSKVQPQ
Turning to B1, the binding entry in assay [2] is on record as “binds”.

B2: Circadian Locomoter Output Cycles Kaput (Clock), endogenous (protein, UniProt O08785 1-855)
chain: B1 chain
As to B2, the binding entry in assay [3], in assay [4] and in assay [5] was “binds” in each case.

B3: O-GlcNAc transferase (OGT), endogenous (enzyme, UniProt Q8CGY8 1-1046)
chain: MASSVGNVADSTEPTKRMLSFQGLAELAHREYQAGDFEAAERHCMQLWRQEPDNTGVLLLLSSIHFQCRRLDRSAHFSTLAIKQNPLLAEAYSNLGNVYKERGQLQEAIEHYRHALRLKPDFIDGYINLAAALVAAGDMEGAVQAYVSALQYNPDLYCVRSDLGNLLKALGRLEEAKACYLKAIETQPNFAVAWSNLGCVFNAQGEIWLAIHHFEKAVTLDPNFLDAYINLGNVLKEARIFDRAVAAYLRALSLSPNHAVVHGNLACVYYEQGLIDLAIDTYRRAIELQPHFPDAYCNLANALKEKGSVAEAEDCYNTALRLCPTHADSLNNLANIKREQGNIEEAVRLYRKALEVFPEFAAAHSNLASVLQQQGKLQEALMHYKEAIRISPTFADAYSNMGNTLKEMQDVQGALQCYTRAIQINPAFADAHSNLASIHKDSGNIPEAIASYRTALKLKPDFPDAYCNLAHCLQIVCDWTDYDERMKKLVSIVAEQLEKNRLPSVHPHHSMLYPLSHGFRKAIAERHGNLCLDKINVLHKPPYEHPKDLKLSDGRLRVGYVSSDFGNHPTSHLMQSIPGMHNPDKFEVFCYALSPDDGTNFRVKVMAEANHFIDLSQIPCNGKAADRIHQDGIHILVNMNGYTKGARNELFALRPAPIQAMWLGYPGTSGALFMDYIITDQETSPAEVAEQYSEKLAYMPHTFFIGDHANMFPHLKKKAVIDFKSNGHIYDNRIVLNGIDLKAFLDSLPDVKIVKMKCPDGGDNPDSSNTALNMPVIPMNTIAEAVIEMINRGQIQITINGFSISNGLATTQINNKAATGEEVPRTIIVTTRSQYGLPEDAIVYCNFNQLYKIDPSTLQMWANILKRVPNSVLWLLRFPAVGEPNIQQYAQNMGLPQNRIIFSPVAPKEEHVRRGQLADVCLDTPLCNGHTTGMDVLWAGTPMVTMPGETLASRVAASQLTCLGCLELIAKSRQEYEDIAVKLGTDLEYLKKIRGKVWKQRISSPLFNTKQYTMELERLYLQMWEHYAAGNKPDHMIKPVEVTESA
With B3, the binding result in assay [6] is reported as “binds”.
